Assay results reported in patent US20100183640A1.
No constants are given. Whether binding was seen depends on the method and setting. Some results given as binding are weak or reduced against the parent protein; the word gives no strength.

Sequences of proteins named here, by UniProt entry; tags and fusion partners are left off. A change or cut given only in a name is not applied to a line headed by its entry. A line that says so, or that is headed by a name, gives the form on record, which may keep a tag or linker. Residues count along the entry.
Superfibronectin (recombinant C-terminal 70 amino acid part of the fibronectin type III.1 domain) (P02751, residues 627-702): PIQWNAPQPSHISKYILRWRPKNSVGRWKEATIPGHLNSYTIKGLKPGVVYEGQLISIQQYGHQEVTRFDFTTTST
40 kDa chymotryptic fragment of human fibronectin (P02751, residues 1815-2202): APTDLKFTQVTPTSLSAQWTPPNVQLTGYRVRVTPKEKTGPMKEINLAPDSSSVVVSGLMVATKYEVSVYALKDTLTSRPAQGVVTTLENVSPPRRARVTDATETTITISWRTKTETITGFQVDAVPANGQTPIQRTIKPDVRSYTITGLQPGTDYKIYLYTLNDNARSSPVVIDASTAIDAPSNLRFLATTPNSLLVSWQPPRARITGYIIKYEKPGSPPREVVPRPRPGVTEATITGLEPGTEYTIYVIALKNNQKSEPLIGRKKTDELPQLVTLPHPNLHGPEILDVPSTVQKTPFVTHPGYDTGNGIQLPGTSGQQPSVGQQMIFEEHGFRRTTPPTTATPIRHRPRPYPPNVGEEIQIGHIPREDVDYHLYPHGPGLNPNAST
120 kDa chymotryptic fragment of human fibronectin (P02751, form named): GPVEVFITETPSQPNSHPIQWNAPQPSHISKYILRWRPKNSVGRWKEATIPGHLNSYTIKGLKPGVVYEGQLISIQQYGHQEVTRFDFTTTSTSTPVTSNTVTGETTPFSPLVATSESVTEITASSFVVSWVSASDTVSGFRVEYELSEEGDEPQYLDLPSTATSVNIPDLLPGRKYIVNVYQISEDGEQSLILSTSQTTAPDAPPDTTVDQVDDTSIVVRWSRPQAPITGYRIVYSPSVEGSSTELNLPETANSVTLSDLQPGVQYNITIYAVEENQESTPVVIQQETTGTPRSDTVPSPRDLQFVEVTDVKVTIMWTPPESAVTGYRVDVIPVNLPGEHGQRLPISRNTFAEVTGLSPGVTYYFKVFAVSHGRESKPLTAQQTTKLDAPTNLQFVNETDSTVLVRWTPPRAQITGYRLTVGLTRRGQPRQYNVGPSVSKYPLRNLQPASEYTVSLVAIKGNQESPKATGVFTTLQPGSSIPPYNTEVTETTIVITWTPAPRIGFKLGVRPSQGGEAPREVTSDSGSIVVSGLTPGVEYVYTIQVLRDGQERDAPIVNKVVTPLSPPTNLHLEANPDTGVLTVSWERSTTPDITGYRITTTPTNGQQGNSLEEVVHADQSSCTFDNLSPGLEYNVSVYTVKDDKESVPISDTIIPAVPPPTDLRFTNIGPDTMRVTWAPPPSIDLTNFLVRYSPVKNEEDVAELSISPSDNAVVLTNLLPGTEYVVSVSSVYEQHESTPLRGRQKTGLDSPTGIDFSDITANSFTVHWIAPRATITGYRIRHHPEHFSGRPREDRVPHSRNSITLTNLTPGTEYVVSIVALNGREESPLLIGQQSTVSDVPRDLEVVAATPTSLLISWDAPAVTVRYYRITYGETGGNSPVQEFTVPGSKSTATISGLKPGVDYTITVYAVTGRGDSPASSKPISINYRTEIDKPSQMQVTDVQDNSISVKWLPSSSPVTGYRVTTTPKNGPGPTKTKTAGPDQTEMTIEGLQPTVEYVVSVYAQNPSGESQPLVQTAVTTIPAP

Key:
[1] = biological target: 40 kDa chymotryptic fragment of human fibronectin (human) (UniProt P02751); test: ELISA, fragment coated, rhUG titrated, anti-UG detection
[2] = biological target: 40 kDa chymotryptic fragment of human fibronectin (human) (UniProt P02751); test: ELISA, 5 micrograms/well fragment coated, 250 ng rhUG/well, anti-UG detection
[3] = biological target: 120 kDa chymotryptic fragment of human fibronectin (human) (UniProt P02751); test: as above
[4] = biological target: 40 kDa chymotryptic fragment of human fibronectin (human) (UniProt P02751); test: ELISA titration, 1 microgram/well coated, 2.7 mM CaCl2
[5] = biological target: Superfibronectin (recombinant C-terminal 70 amino acid part of the fibronectin type III.1 domain) (human) (UniProt P02751); test: as above
[6] = biological target: T1, CD148 (human) (UniProt Q12913); test: rhUG-Sepharose affinity column, Hfl-1 lysate, elution with 0.5 M NaCl, Western blot
T1 sequence (looked up): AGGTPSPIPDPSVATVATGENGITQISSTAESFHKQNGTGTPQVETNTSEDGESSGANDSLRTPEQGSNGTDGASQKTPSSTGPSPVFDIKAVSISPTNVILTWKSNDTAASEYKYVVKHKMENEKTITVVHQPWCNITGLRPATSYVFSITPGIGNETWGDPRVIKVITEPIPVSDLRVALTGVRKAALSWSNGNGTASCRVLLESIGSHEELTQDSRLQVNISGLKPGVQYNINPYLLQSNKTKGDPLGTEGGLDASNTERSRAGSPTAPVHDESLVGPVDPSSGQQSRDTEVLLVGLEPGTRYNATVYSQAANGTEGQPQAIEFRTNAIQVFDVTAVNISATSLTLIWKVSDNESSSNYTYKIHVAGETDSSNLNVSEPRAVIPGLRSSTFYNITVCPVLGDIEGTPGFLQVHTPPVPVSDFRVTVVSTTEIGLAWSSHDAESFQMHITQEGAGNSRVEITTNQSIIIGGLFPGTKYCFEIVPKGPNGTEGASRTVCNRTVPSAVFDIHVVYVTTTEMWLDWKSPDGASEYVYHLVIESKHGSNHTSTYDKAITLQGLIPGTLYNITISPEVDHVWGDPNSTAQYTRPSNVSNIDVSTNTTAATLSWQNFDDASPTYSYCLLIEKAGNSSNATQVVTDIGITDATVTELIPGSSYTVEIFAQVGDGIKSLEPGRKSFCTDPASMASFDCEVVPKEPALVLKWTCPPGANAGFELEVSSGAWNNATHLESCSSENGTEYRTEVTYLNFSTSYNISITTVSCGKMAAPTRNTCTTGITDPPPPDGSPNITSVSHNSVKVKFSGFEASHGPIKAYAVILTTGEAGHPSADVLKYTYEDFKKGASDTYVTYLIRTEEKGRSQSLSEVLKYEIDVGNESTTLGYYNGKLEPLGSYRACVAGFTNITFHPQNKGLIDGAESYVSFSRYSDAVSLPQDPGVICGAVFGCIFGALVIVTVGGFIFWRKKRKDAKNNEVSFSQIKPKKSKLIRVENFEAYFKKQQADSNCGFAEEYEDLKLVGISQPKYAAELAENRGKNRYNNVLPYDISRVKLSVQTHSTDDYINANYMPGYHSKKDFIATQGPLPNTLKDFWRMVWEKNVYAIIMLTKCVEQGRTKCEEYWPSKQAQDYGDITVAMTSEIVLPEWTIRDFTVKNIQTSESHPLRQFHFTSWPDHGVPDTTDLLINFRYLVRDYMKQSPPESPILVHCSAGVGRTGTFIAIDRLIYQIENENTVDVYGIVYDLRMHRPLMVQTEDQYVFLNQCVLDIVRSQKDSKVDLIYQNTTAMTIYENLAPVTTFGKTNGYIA

[7] = biological target: 40 kDa chymotryptic fragment of human fibronectin (human) (UniProt P02751); test: ELISA, coated fibronectin fragments
[8] = biological target: 120 kDa chymotryptic fragment of human fibronectin (human) (UniProt P02751); test: ELISA, coated fibronectin fragments
[9] = biological target: Superfibronectin (recombinant C-terminal 70 amino acid part of the fibronectin type III.1 domain) (human) (UniProt P02751); test: ELISA, 5 micrograms/well superfibronectin coated, 250 ng rhUG/well, anti-UG detection
[10] = biological target: 40 kDa chymotryptic fragment of human fibronectin (human) (UniProt P02751); test: ELISA, coated fibronectin species
[11] = biological target: 120 kDa chymotryptic fragment of human fibronectin (human) (UniProt P02751); test: ELISA, coated fibronectin species

binding [1]: binds | binding [2]: binds | binding [3]: binds | binding [4]: binds | binding [5]: binds | binding [6]: binds | binding [7]: binds | binding [8]: binds | binding [9]: binds | binding [10]: binds | binding [11]: binds
B1: recombinant human uteroglobin (ligand)
chain: EICPSFQRVIETLLMDTPSSYEAAMELFSPDQDMREAGAQLKKLVDTLPQKPRESIIKLMEKIAQSSLCN
